These results are taken from paper PMC7607909.

In this test the target is mature Arabidopsis Atp11 fused to the bait vector (BD-Atp11) (Arabidopsis thaliana). As to the kind of experiment: two-hybrid; Matchmaker Gold Yeast Two-hybrid System (Clontech); bait in pGBKT7, prey in pGADT7, yeast strain Y2H Gold; growth on SD/-Leu/-Trp/-His/-ade/X-a-Gal medium, 10- to 10,000-fold dilutions.

Results are given in words; binding and its absence hold for the method and conditions named. Where a sequence is shown, tags or fusion partners need not be part of it.

B1: PAB, chloroplast ATP synthase assembly factor (yeast two-hybrid fusion) (protein, UniProt Q94JY0 1-330)
chain: MGSISMHITPSTALPIRHFRARVSCCSSGHVSFIKDVAATEPPMHLHHLLKVLQTRGETIISPGAKQGLIPLAIPLSKNSSGSVTALLRWPTAPPGMDMPVVEVWRSGVRLIARNVDEYIHRILVEEDAQELTELYRASGEAGEKLYEKGAFAESEIDNLDVYVLKKVGLFPDLLERKVLRHFDEGDHVSAMVTGEFYTKKDLFPGFGRPFVYYANILQKVGRNVEAKDAARVALRSPWWTLGCPYEEVASIAQWEDEQIEFIREKVSDEGRFEDLHKGKAPIQVALDVAAFLLDLASIEGTWSESLNHIAKCYEEAGLHHISNFVLYTD
B1: the binding result is on record as “no binding”.
